{"source": "patent US20080280765A1", "about": "“Method of Promoting Enlargement Growth of Agricultural and Horticultural Crops” (priority 2006, published 2008)", "tested_on": "grape (species: \"Italia\")", "experiment": "Fruit enlargement test, grape, dipping treatment of bunches", "assay_type": "in vivo", "details": "for Sugar level: hand-held refracto-sugar meter", "method": "Using grape (species: “Italia”) as a subject, a fruit enlargement test was done following the experimental summary described below. The test was carried out with 7 replication. Fifteen days after the full bloom, grape bunches were dipped in a chemical solution diluted to a predetermined concentration. The treated grape bunches were dried in air and grown as they were, until the bunches were harvested 43 days after the treatment to examine the bunch weight and the total number of grape berries. Five berries were randomly selected from each grape bunch of 5 replication among the test lots, for measuring the sugar level with a hand-held refracto-sugar meter manufactured by ATAGO CO., LTD (Type number: Nl). Additionally, a drug substance of gibberellin in powder (98% purity) was used as the gibberellin, while as the prohexadione calcium salt, a 27.5% formulation (the trade name: Viviful) was used, and as the trinexapac ethyl, a 25% formulation thereof (the trade name: Moddus) was used.\nMaterial: Grape bunch “Italia” Fully bloomed on Sep. 21, 2006; starting the treatments on Oct. 6, 2006; harvested on Dec. 18, 2006: 7 bunches per one treatment lot.\nC: Cont (control lot) G: dipping treatment in gibberellin (24.5 ppm) PCA: dipping treatment in prohexadione calcium salt (20 ppm, 100 ppm) GPCA: dipping treatment in gibberellin and prohexadione calcium salt (24.5 and 20 ppm, respectively or 24.5 ppm and 100 ppm, respectively) TR: dipping treatment in trinexapac ethyl (20 ppm, 100 ppm) G+TR: dipping treatment in gibberellin and trinexapac ethyl (24.5 ppm and 20 ppm, respectively or 24.5 ppm and 100 ppm, respectively).\nHerein, statistical analysis was done by the Tukey's HSD test (p=0.05). Significant difference is observed between different alphabets.", "note": "Structures can show the parent of a compound that is named as a salt."}
{"compound": "CCOC(=O)C1CC(=O)C(=C(O)C2CC2)C(=O)C1", "note": "(centres unmarked) [TR, trinexapac ethyl]", "values": [{"measurement": "Mean berry number/bunch (in number)", "setting": "20 ppm", "value": 62.1}, {"measurement": "Sugar level", "setting": "20 ppm", "value": 11.0, "unit": "%"}, {"measurement": "Mean berry number/bunch (in number)", "setting": "100 ppm", "value": 71.4}, {"measurement": "Sugar level", "setting": "100 ppm", "value": 10.6, "unit": "%"}]}
{"compound": "CCC(=O)C1=C(O)CC(C(=O)O)CC1=O", "note": "(centres unmarked) [PCA, prohexadione calcium salt]", "values": [{"measurement": "Mean berry number/bunch (in number)", "setting": "20 ppm", "value": 64.0}, {"measurement": "Sugar level", "setting": "20 ppm", "value": 10.8, "unit": "%"}, {"measurement": "Mean berry number/bunch (in number)", "setting": "100 ppm", "value": 61.1}, {"measurement": "Sugar level", "setting": "100 ppm", "value": 11.2, "unit": "%"}]}
